Measured values from publication PMC7865074.
These are yes or no findings as the source states them, for the method shown.

Protein sequences, listed by entry. Tags and fused reporters are not part of them. Residues count along the entry.
UniProt Q6P9H4, residues 211-293: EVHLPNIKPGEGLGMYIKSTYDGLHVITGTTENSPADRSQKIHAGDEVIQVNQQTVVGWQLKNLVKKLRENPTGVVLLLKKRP

Molecular target: biotinylated WNV NS5 PBM peptide (West Nile virus)
Test: condition: BI < 0.15 (threshold for a significant interaction 0.2); holdup assay (automated high-throughput chromatography); biotinylated NS5 PBM peptide as bait against 259 human PDZ domains expressed in E. coli; read-out binding intensity (BI), mean of replicates; BI threshold 0.2 for a significant interaction

“Connector enhancer of kinase suppressor of ras 3, PDZ domain (holdup construct) (from UniProt Q6P9H4 211-293) (domain or fragment)” was tested, and the binding was “no binding”.
